Construct, isoform or probe ends are uncertain for at least one entry. At least one verdict rests on a figure or table, not on a statement of the authors.
Target: RAD52-OR (open ring) (Homo sapiens) (UniProt P43351)
Assay: SEC
Conditions: RAD52 preloaded on SSA2-Cy5 before annealing; recombinant protein; residues 1-418; label: 3' Cy5; single-stranded DNA

The chains behind the UniProt entries cited, without tags or fusion partners. Where a name states a change or a piece, a line headed by the entry shows the natural chain unless it says otherwise.
UniProt P43351: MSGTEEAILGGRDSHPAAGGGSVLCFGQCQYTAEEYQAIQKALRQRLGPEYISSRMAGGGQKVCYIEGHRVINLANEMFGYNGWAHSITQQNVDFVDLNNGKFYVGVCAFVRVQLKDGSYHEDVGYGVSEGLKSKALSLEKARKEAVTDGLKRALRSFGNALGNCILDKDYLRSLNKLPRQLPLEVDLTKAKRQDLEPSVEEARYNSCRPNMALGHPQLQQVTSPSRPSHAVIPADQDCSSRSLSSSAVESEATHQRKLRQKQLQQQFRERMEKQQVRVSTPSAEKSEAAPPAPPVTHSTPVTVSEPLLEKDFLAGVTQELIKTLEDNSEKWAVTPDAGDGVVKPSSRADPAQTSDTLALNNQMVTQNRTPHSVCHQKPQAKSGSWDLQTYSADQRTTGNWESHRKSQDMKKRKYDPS

Question: Does “AACCTGCAGGTTGAGGAGCCCAAACCTCACTGGTAAATTCGCAGCGTTGACTAGACGGATTCGATA [SSA2-Cy5]” bind?
Answer: binds

From PMC11096129
